Test results published in the supplement of paper PMC10398353.
Several values for one entry are separate records, joined by “and”; a condition that tells them apart may be missing. Equal entries are not always repeated. Structures can show the parent of a compound that is named as a salt. ± gives the standard deviation of the averaged measurements. The list shows a part of the results. This is a noisy data set.

Each compound was assayed on Salmonella enterica serovar Typhimurium ST313 D23580 (assay: normalized bacterial growth (OD600 20 h minus 0 h, interquartile-mean normalized) (fraction of plate interquartile mean); higher = more bacterial growth (less inhibition)). Details: LPM (pH 5.8, low phosphate, low Mg2+), concentration: 10 µM, temperature: 37 °C.

| Structure (SMILES) | normalized bacterial growth |
| --- | --- |
| C#Cc1ccc2c(c1)C(=O)N(C)Cc1c(C(=O)OCCCOC(=O)c3ncn4c3CN(C)C(=O)c3cc(C#C)ccc3-4)ncn1-2 [Xli 093 hydrate] | 1.04 |
| Cc1c(N)c(=O)n(-c2ccccc2)n1C [Ampyrone] | 1.22 |
| COc1ccc2c(c1)c(CC(=O)O)c(C)n2C(=O)c1ccccc1 [1-benzoyl-5-methoxy-2-methylindole-3-acetic acid] | 0.903 |
| C=C/C(C)=C/[C@@]1(C)SC(=O)C(C)=C1O [Thiolactomycin] | 0.785 |
| CCOC(=O)Nc1nc2ccccc2[nH]1 | 1.03 |
| COc1ccc(-c2oc3cc(OC)c(OC)c(OC)c3c(=O)c2OC)cc1OC | 0.888 |
| NS(=O)(=O)C#Cc1ccccc1 [Pifithrin-mu] | 0.81 |
| Nc1c(S(=O)(=O)O)cc(Nc2ccc(Nc3nc(Cl)nc(Nc4cccc(S(=O)(=O)O)c4)n3)c(S(=O)(=O)O)c2)c2c1C(=O)c1ccccc1C2=O [Reactive Blue 2] | 0.682 |
| Cc1ccc(C(=O)C(C)CN2CCCCC2)cc1 (configuration not stated) | 0.834 |
| c1ccc(CN2CCC3(CCCc4ccccc43)CC2)cc1 ["L-687,384 hydrochloride"] | 0.765 |
| CNCC[C@@H](Oc1ccccc1C)c1ccccc1 [Tomoxetine] | 0.834 |
| CNCC[C@@H](Oc1ccccc1C)c1ccccc1 | 1.16 |
| OC[C@H]1O[C@@H](O[C@@H]2OC=C[C@H]3[C@H](O)[C@@H]4O[C@]4(CO)[C@@H]23)[C@H](O)[C@@H](O)[C@@H]1O | 1.36 |
| O=C(CCCCC(=O)Nc1c(I)cc(I)c(C(=O)O)c1I)Nc1c(I)cc(I)c(C(=O)O)c1I [Iodipamide] | 1.21 |
| O=C(CCCCC(=O)Nc1c(I)cc(I)c(C(=O)O)c1I)Nc1c(I)cc(I)c(C(=O)O)c1I | 0.731 |
| COc1cc(C(C)=O)cc(OC)c1O | 1.07 |
| CC(C)=CCC/C(C)=C\CO | 0.949 |
| COCCCOc1ccnc(C[S+]([O-])c2nc3ccccc3[nH]2)c1C (configuration not stated) | 1.18 |
| O=C(O)Cc1cc(I)c(Oc2ccc(O)c(I)c2)c(I)c1 ["Tiratricol, 3,3',5-triiodothyroacetic acid"] | 0.723 |
| COCCCOc1cc(C[C@@H](C[C@H](N)[C@@H](O)C[C@H](C(=O)NCC(C)(C)C(N)=O)C(C)C)C(C)C)ccc1OC | 1.02 |
| CCCCOC(=O)c1ccc(O)cc1 | 0.72 |
| C#C[C@]1(OC(C)=O)CC[C@H]2[C@@H]3CCC4=CC(=O)CC[C@@H]4[C@H]3CC[C@@]21C | 0.774 |
| CCCc1nc2c(C)cc(-c3nc4ccccc4n3C)cc2n1Cc1ccc(-c2ccccc2C(=O)O)cc1 | 0.637 |
| O=C(O)Cc1ccc(O)c(O)c1 ["3,4-Dihydroxyphenylacetic acid"] | 0.901 |
| CC(=O)/N=c1/sc(S(N)(=O)=O)nn1C [Methazolamide] | 1.27 |
| CC(=O)/N=c1/sc(S(N)(=O)=O)nn1C | 1.04 |

| Structure (SMILES) | normalized bacterial growth |
| --- | --- |
| CC1=CC(=O)c2ccccc2C1=O | 0.768 |
| COc1ccc(-c2cc(=O)c3c(O)c(OC)c(OC)c(OC)c3o2)cc1OC | 0.879 |
| N=C(N)N1CCc2ccccc2C1 [Debrisoquin sulfate] | 1.07 ± 0.076 |
| N=C(N)SCCN [2-(2-Aminoethyl)isothiourea dihydrobromide] | 1.07 |
| CCCCC1C(=O)N(c2ccccc2)N(c2ccccc2)C1=O [Phenylbutazone] | 1.02 |
| O=C(O)/C=C/C=C/c1ccccc1 | 1.06 |
| CCCCC[C@@H](O)[C@H]1C(=O)O[C@H](C)[C@@H](O)/C=C/C=C/C=C/C=C/C=C(\C)[C@@H](O)C[C@H](O)C[C@H](O)C[C@H](O)C[C@H](O)C[C@H](O)C[C@@H]1O | 1.08 |
| O=C(Nc1ccccc1)OCC(CN1CCCCC1)OC(=O)Nc1ccccc1 (configuration not stated) | 1.06 |
| CC1(C)C(=O)N(CCN2CCC(C(=O)c3ccc(F)cc3)CC2)c2ccccc21 ["LY-310,762 hydrochloride"] | 0.884 |
| COc1c(O)cc(O)cc1O | 0.972 |
| NC(=O)Nc1sc(-c2ccc(F)cc2)cc1C(N)=O | 1.08 |
| C[C@@H]1O[C@@H](OC[C@H]2O[C@@H](Oc3c(-c4ccc(O)c(O)c4)oc4cc(O)cc(O)c4c3=O)[C@H](O)[C@@H](O)[C@@H]2O)[C@H](O)[C@H](O)[C@H]1O | 1.03 |
| C[C@@H]1O[C@@H](OC[C@H]2O[C@@H](Oc3c(-c4ccc(O)c(O)c4)oc4cc(O)cc(O)c4c3=O)[C@H](O)[C@@H](O)[C@@H]2O)[C@H](O)[C@H](O)[C@H]1O [RUTOSIDE  (rutin)] | 1.13 |
| CCCC(=O)Nc1ccc(OCC(O)CNC(C)C)c(C(C)=O)c1 (configuration not stated) | 1.2 |
| CC(=O)Nc1ccc(OCC(O)CNC(C)C)cc1 (configuration not stated) | 1.25 |
| CN1[C@@H]2CC[C@H]1C[C@@H](OC(c1ccccc1)c1ccccc1)C2 [Benztropine mesylate] | 0.75 |
| N=C(N=C(N)N)N1CCOCC1 [Moroxidine hydrochloride] | 1.09 |
| COc1cc(O)c(C(=O)/C=C/c2ccc(O)c(OC)c2)c(OC)c1 | 0.609 |
| CC(=O)OCC(=O)[C@@]12OC3(CCCC3)O[C@@H]1C[C@H]1[C@@H]3CCC4=CC(=O)C=C[C@]4(C)[C@@]3(F)[C@@H](O)C[C@@]12C | 1.01 |
| COc1cc2c(cc1OC)Cc1cc(OC)c(OC)cc1Cc1cc(OC)c(OC)cc1C2 | 0.748 |
| N[C@@H](CC(=O)N1CCn2c(nnc2C(F)(F)F)C1)Cc1cc(F)c(F)cc1F | 1.01 |
| C[C@@H]1O[C@@H](O[C@H]2[C@H](Oc3cc(O)c4c(c3)O[C@H](c3ccc(O)cc3)CC4=O)O[C@H](CO)[C@@H](O)[C@@H]2O)[C@H](O)[C@H](O)[C@H]1O [Naringin hydrate] | 1.32 |
| C[C@@H]1O[C@@H](O[C@H]2[C@H](Oc3cc(O)c4c(c3)O[C@H](c3ccc(O)cc3)CC4=O)O[C@H](CO)[C@@H](O)[C@@H]2O)[C@H](O)[C@H](O)[C@H]1O | 1.08 ± 0.42 |
| OCC(O)C(O)C(O)CO (configuration not stated) | 0.756 |
| CC1CCC2(OC1)OC1CC3C4CCC5C[C@@H](O)CCC5(C)C4=CCC3(C)C1[C@@H]2C (stereo partly drawn) [3beta-HYDROXYISOALLOSPIROST-9(11)-ENE] | 0.935 |
| C#CC1(O)CC[C@H]2[C@@H]3CCC4=CC(=O)CC[C@@H]4[C@H]3CC[C@@]21CC (some centres not stated) | 1.16 |

| Structure (SMILES) | normalized bacterial growth |
| --- | --- |
| Cc1nc(N=Nc2cc(S(=O)(=O)O)c3cc([N+](=O)[O-])cc(S(=O)(=O)O)c3c2)c(COP(=O)(O)O)c(C=O)c1O [PPNDS tetrasodium] | 1.03 |
| Cc1cccc(C)c1NC(=O)CN1CCN(CCCC(c2ccc(F)cc2)c2ccc(F)cc2)CC1 [Lidoflazine] | 0.855 |
| Cc1cccc(C2CN(C)CCc3c2cc(O)c(O)c3Cl)c1 (configuration not stated) | 0.597 |
| Cc1c(C)c2c(c(C)c1O)CCC(C)(CCCC(C)CCCC(C)CCCC(C)C)O2 (stereo not drawn) [alpha-TOCHOPHEROL] | 1.3 |
| CC(=O)O[C@]1(C(C)=O)CC[C@H]2[C@@H]3C=C(C)C4=CC(=O)CC[C@]4(C)[C@H]3CC[C@@]21C [Megestrol acetate] | 0.998 |
| CC(=O)O[C@]1(C(C)=O)CC[C@H]2[C@@H]3C=C(C)C4=CC(=O)CC[C@]4(C)[C@H]3CC[C@@]21C | 1.03 |
| NC[C@H]1O[C@H](O[C@H]2[C@H](O)[C@@H](O[C@H]3O[C@H](CO)[C@@H](O)[C@H](N)[C@H]3O)[C@H](N)C[C@@H]2N)[C@H](N)[C@@H](O)[C@@H]1O | 0.341 |
| Nc1nnc(-c2cccc(Cl)c2Cl)c(N)n1 [Lamotrigine] | 0.944 |
| O=C(O)/C=C(\CC(=O)O)C(=O)O | 0.961 |
| Nc1nc(=O)[nH]cc1F [Flucytosine] | 0.171 |
| Oc1cc(O)cc(/C=C/c2ccc(O)c(O)c2)c1 | 0.925 |
| COc1ccc2cc3[n+](cc2c1OC)CCc1cc2c(cc1-3)OCO2 | 0.831 and 1.03 |
| CC[C@@H]1Cc2cc(O)ccc2C2=C1c1ccc(O)cc1C[C@H]2CC ["(R,R)-cis-Diethyl tetrahydro-2,8-chrysenediol"] | 0.994 |
| COc1ccc2c(c1)OC[C@@H](Cc1ccc(OC)c(OC)c1)[C@@H]2O | 0.78 |
| COC(=O)C[C@H]1C(C)(C)C(=O)[C@@H]2CC3C4=CC(=O)O[C@@H](c5ccoc5)[C@]4(C)CC[C@@H]3[C@@]1(C)C2=O (some centres not stated) | 0.942 |
| CC(C)=CC1C(C(=O)O)C1(C)C (configuration not stated) | 1.1 |
| NC(=O)c1cc[n+](CC2=C(C(=O)[O-])N3C(=O)[C@@H](NC(=O)Cc4cccs4)[C@H]3SC2)cc1 [Cefalonium] | 1.09 |
| O=C1C(O)=C(O)C(=O)C(O)=C1O ["Tetrahydroxy-1,4-quinone monohydrate"] | 1.18 |
| O=C1C(O)=C(O)C(=O)C(O)=C1O | 0.485 |
| O=c1c2ccccc2[nH]c(=S)n1CCN1CCC(=C(c2ccc(F)cc2)c2ccc(F)cc2)CC1 [Diacylglycerol Kinase Inhibitor II] | 1.08 |
| Cc1c2oc3c(C)ccc(C(=O)N[C@@H]4C(=O)N[C@H](C(C)C)C(=O)N5CCC[C@H]5C(=O)N(C)CC(=O)N(C)[C@@H](C(C)C)C(=O)O[C@@H]4C)c3nc-2c(C(=O)N[C@@H]2C(=O)N[C@H](C(C)C)C(=O)N3CCC[C@H]3C(=O)N(C)CC(=O)N(C)[C@@H](C(C)C)C(=O)O[C@@H]2C)c(N)c1=O | 0.723 and 0.792 |
| COc1ccc2c(c1)c(CC(=O)OCC(=O)O)c(C)n2C(=O)c1ccc(Cl)cc1 | 1.02 |
| CN1CC(=O)N=C1NC(=O)Nc1cccc(Cl)c1 [Fenobam] | 0.678 |
| CCC(C)C(=O)OC1[C@@H]2CC3=C4CC(=O)O[C@@H](c5ccoc5)[C@]4(C)CCC3[C@@](C)(C2=O)[C@@H](CC(=O)OC)C1(C)C (some centres not stated) | 0.86 |
| CC[C@H](C)C(=O)O[C@H]1C[C@H](O)C=C2C=C[C@H](C)[C@H](CC[C@@H](O)C[C@@H](O)CC(=O)O)[C@H]21 | 0.768 |

Another view of part of the listing above:
Structure (SMILES),normalized bacterial growth
C#Cc1ccc2c(c1)C(=O)N(C)Cc1c(C(=O)OCCCOC(=O)c3ncn4c3CN(C)C(=O)c3cc(C#C)ccc3-4)ncn1-2 [Xli 093 hydrate],1.04
CCOC(=O)Nc1nc2ccccc2[nH]1,1.03
Nc1c(S(=O)(=O)O)cc(Nc2ccc(Nc3nc(Cl)nc(Nc4cccc(S(=O)(=O)O)c4)n3)c(S(=O)(=O)O)c2)c2c1C(=O)c1ccccc1C2=O [Reactive Blue 2],0.682
COc1cc(O)c(C(=O)/C=C/c2ccc(O)c(OC)c2)c(OC)c1,0.609
CC(=O)OCC(=O)[C@@]12OC3(CCCC3)O[C@@H]1C[C@H]1[C@@H]3CCC4=CC(=O)C=C[C@]4(C)[C@@]3(F)[C@@H](O)C[C@@]12C,1.01
OCC(O)C(O)C(O)CO (configuration not stated),0.756
Nc1nc(=O)[nH]cc1F [Flucytosine],0.171
